Screen size: about 31,000 sequences; about 1,400 (4.5%) were called active.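 The calls were made as follows: active = median seed-adjusted z-score above 1 or below -1; inactive = the rest.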 The list shows a part of the results.
Test: Novel Modifiers of Survival Motor Neuron (SMN) Protein: Gene Identification via Genome-wide siRNA Screen
Conditions: HEK293T SMN2-luciferase reporter, siRNA knockdown, 72 h; actives lie on both sides
Text: Spinal muscular atrophy (SMA) is the most common neuromuscular autosomal recessive disorder and one of the leading genetic causes of infant death. SMA results from mutations inducing loss of function or deletion in the survival of motor neuron-1 gene (SMN1), leading to deficiency of the survival motor neuron (SMN) protein. Although a second nearly identical gene, SMN2, is retained in humans, its expression primarily produces an aberrantly spliced isoform that is largely unstable and quickly degraded. We performed a genome-wide RNAi screen using a cell-based reporter assay to identify genes and pathways that modulate SMN protein stability. The screen identified over 200 genes that led to the greatest increase or decrease in luciferase expression.
Using HEK293T cells stably expressing a luciferase reporter that combines the promoter and splicing based cassettes in tandem with the major portion of the native SMN2 cDNA with luciferase, we performed a genome-wide RNAi screen to identify modulators of SMN protein levels. Luciferase is expressed when full-length SMN protein is generated with luminescence signal proportional to SMN protein levels. Our luciferase-based reporter assay was used to screen Ambion Silencer Select Human Druggable Genome siRNA library (10418 genes, 3 unique siRNAs per gene) using lipid-based reverse transfection.
Briefly, 1 pmol of each siRNA was spotted to a well of a 384-well plate (Corning, Corning, NY) and 20 microL of serum-free DMEM containing […] of Lipofectamine RNAiMax (Life Technologies, Carlsbad, CA) was then added to each well. Transfected cells were maintained at 37 degrees C in 5% CO2 for 72 hours, 20 microL of ONE-Glo Reagent (Promega) was added to wells for luciferase quantification. Raw luminescence reads were normalized to Ambion(R) Silencer(R) Negative Control #2 siRNA, then log10 transformed. A robust statistical measure of median absolute deviation (MAD) to standardize siRNA activities from each screen. Common Seed Analysis was used to help prioritize clean hits as opposed to those appearing to arise from seed based off-target effects. Candidate modulators were defined as the genes having a MAD score greater than 1.0 or less than -1.0.
In the case of CAAAUUGGAUUGGAAAUGATT against TAAR1, the median seed-adjusted z-score is reported as inactive: 0.0724. With GGACACCAUUUUCAAAUCATT against CYP24A1 the median seed-adjusted z-score was inactive: 0.136. With GGAGAGUUACUUGACCGUATT against RPS6KA6 the median seed-adjusted z-score was inactive: -0.0821. With GAAGAAUGAUUAAAUGGUUTT against ACCS the median seed-adjusted z-score was inactive: -0.49. In the case of GACCGGAUAUGGGCUAUAATT against NEK7, the median seed-adjusted z-score is reported as inactive: 0. For UCCUCAAGAGUUCACCUAUTT against FCRL2, the median seed-adjusted z-score was inactive: -0.294. With GGACUUCGGGUGUUUGACATT against MYL6 the median seed-adjusted z-score was inactive: -0.228. With GAAACUGAAUGGGAAAGAATT against NOBOX the median seed-adjusted z-score was inactive: -0.426. For CGACAUCAUCAAUAGACGATT against AQR, the median seed-adjusted z-score was active: -1.56. For GCUUUGACAUUGAACAGCUTT against INMT, the median seed-adjusted z-score was inactive: 0.863. For CGAAGAUUCAUAACUCUCATT against LACE1, the median seed-adjusted z-score was inactive: 0.166. With CAACUGCCCUUCAAUUUCATT against DLL4 the median seed-adjusted z-score was inactive: 0.299. For GAAGUGGACCUAUAGCCUUTT against DUSP12, the median seed-adjusted z-score was inactive: -0.0123. In the case of GGCCGUUACUUACCAGAGUTT against UROD, the median seed-adjusted z-score is reported as active: 1.11. For GGGAAAAUGAUGACCAUAATT against FABP9, the median seed-adjusted z-score was inactive: 0.527. With GGCCGUUACUGAUUGAGCUTT against CAPN7 the median seed-adjusted z-score was inactive: 0.125. In the case of GGUUAACGAAGGCACAAAATT against ADAM9, the median seed-adjusted z-score is reported as inactive: 0. With GUAUGAACAGCAAACCUAUTT against EIF3L the median seed-adjusted z-score was inactive: 0.656. For UGAUGAAUGUUAUCGAGAATT against RFC2, the median seed-adjusted z-score was inactive: 0.00126. With UCACGCACCUCAACAAUGATT against CDK5R1 the median seed-adjusted z-score was inactive: 0.373. In the case of CCUUCGAAGAAAUCCAGAATT against PIM1, the median seed-adjusted z-score is reported as inactive: -0.409. For GGAACAAAGACUAAAAACATT against TUBB6, the median seed-adjusted z-score was inactive: 0.63. In the case of CAGACAGCCUUGAAUCUCATT against GPR133, the median seed-adjusted z-score is reported as inactive: -0.681. For GAGUGCCUAUAUUUCUAAATT against ACBD7, the median seed-adjusted z-score was inactive: -0.542. In the case of CGACAUCAGCUGAUAAUCATT against NPY1R, the median seed-adjusted z-score is reported as inactive: 0.76. In the case of GCAGAGUGCUUCCCAGUGATT against JRK, the median seed-adjusted z-score is reported as inactive: -0.624. In the case of GGAGCAAGGCAAGUUCUAUTT against TNFRSF13B, the median seed-adjusted z-score is reported as inactive: 0.152. In the case of GGAAUGGUUUAAAAUAGAATT against NUDT3, the median seed-adjusted z-score is reported as inactive: 0.674. For GCAUUUGAAGCGAUAGUCATT against DNM3, the median seed-adjusted z-score was inactive: 0. With CCUGGGAUCUACUACUUCATT against C1QTNF2 the median seed-adjusted z-score was inactive: 0.0697. With CGAUUAUCGUUUACAUCAUTT against USP25 the median seed-adjusted z-score was inactive: 0.0461. For CUGGAUAAGUGUUUCGAAATT against AP3S2, the median seed-adjusted z-score was inactive: 0.521. For CGGGCUACAUCAUAUGCUUTT against GPR171, the median seed-adjusted z-score was inactive: -0.449. With CCAUAUAGAUGUAACGAAUTT against ZNF329 the median seed-adjusted z-score was inactive: -0.0877. In the case of UGAGUGUGGGCGUAACUCATT against KLK12, the median seed-adjusted z-score is reported as inactive: 0.243. In the case of AGACCUCCUUAAUAAUGAATT against FOXP1, the median seed-adjusted z-score is reported as inactive: -0.198. With CAGAGUAUUUGGAAAAAGATT against MNX1 the median seed-adjusted z-score was inactive: 0.734. For GCUUUUCUCUUACAAUUCATT against ZNF557, the median seed-adjusted z-score was inactive: -0.197. For ACAUCGUACUCUAUAACAATT against CHRNA10, the median seed-adjusted z-score was inactive: 0.521. For GGCAGAACUCUUUAUGGAATT against ZNF280C, the median seed-adjusted z-score was inactive: 0.336. In the case of CCUCAUUCUUCAAUAGCAATT against EXTL2, the median seed-adjusted z-score is reported as inactive: -0.0568. For GGACUUAUUGUUGUGCUAATT against ABHD3, the median seed-adjusted z-score was inactive: -0.126. For CAUUUGGUCUAGACAGUUUTT against TDP1, the median seed-adjusted z-score was inactive: -0.352. With GGCUUGCGGUGCUUGUUAATT against IL5RA the median seed-adjusted z-score was inactive: -0.357. With GGGUGUGCAGGUUCUGUGATT against TRIM40 the median seed-adjusted z-score was inactive: 0.108. With CCAUAGUGACGGUGAAUCATT against SLITRK3 the median seed-adjusted z-score was inactive: -0.564. In the case of GGAACAGCCCGAUCUGCUATT against NT5C1A, the median seed-adjusted z-score is reported as inactive: -0.448. For GGAUAUCUACGAAGGAUAUTT against ACSM3, the median seed-adjusted z-score was inactive: 0.281. With GUACAGGGCUGAAAACAUATT against KIF3C the median seed-adjusted z-score was inactive: 0.0126. With CCAGCUAGGUGACAUCCAATT against ITGAD the median seed-adjusted z-score was inactive: 0.188. For GAAUAAUGCUUAUGCUAGATT against CLIC6, the median seed-adjusted z-score was inactive: -0.00828. For AGCAGAUGGUUUUCGAGAATT against COPZ2, the median seed-adjusted z-score was active: -1.23. For CCUCAGAGCUAUUACCCAATT against DNMT3A, the median seed-adjusted z-score was inactive: -0.643. With CUUCCGAAAAGAGAACAAATT against ERC2 the median seed-adjusted z-score was inactive: 0.172. For CAUCAGCGUAUAUUAGAUATT against NCBP1, the median seed-adjusted z-score was inactive: 0.785. In the case of CCAGAGGAGAUUAGACGUATT against SPIRE1, the median seed-adjusted z-score is reported as inactive: 0.336. With GCAUUUAUGGUGCCUGAUUTT against CREB3L4 the median seed-adjusted z-score was inactive: 0.229. With GGGUAUCGGUGAUGAGCUATT against ALAD the median seed-adjusted z-score was inactive: 0.0952. For AGACACUUCGGGACAAAGATT against MYO1G, the median seed-adjusted z-score was inactive: -0.907. In the case of GUGUGAUGGUUGUAAACGATT against ZMYM6, the median seed-adjusted z-score is reported as inactive: -0.355. In the case of CCAUUUAGCUGUAGACCUUTT against USP51, the median seed-adjusted z-score is reported as inactive: -1. In the case of GUCUACCCAUGGACCCAGATT against HBG1, the median seed-adjusted z-score is reported as inactive: -0.716. In the case of CCCUUGCUAUCGCUGCAUATT against MOCS3, the median seed-adjusted z-score is reported as inactive: -0.496. In the case of GACCAAAGAUGAGAAAGUATT against ATP13A1, the median seed-adjusted z-score is reported as inactive: 0.488. For CGAUAGCAAAAGAAGGUUUTT against NRP1, the median seed-adjusted z-score was inactive: 0.561. In the case of GGUGGAGGCGUGUAUAUCATT against RIOK1, the median seed-adjusted z-score is reported as inactive: 0.0528. In the case of CCCUGACUGCAACUGCUUUTT against LDLRAD2, the median seed-adjusted z-score is reported as inactive: -0.459. For GGUUGGUCUCCUCUUCAUATT against PSMD10, the median seed-adjusted z-score was inactive: 0.265. In the case of AUGUCAGUGUUAUACCUAATT against NCBP2, the median seed-adjusted z-score is reported as inactive: -0.247.

Source: PubChem BioAssay AID1347426 (Functional Genomics Laboratory (NCATS/FGL), 2020)
